# Test results: the supplement of paper PMC8728848
# The other results are listed elsewhere or left out.
# B1: Gal 10 (Homo sapiens), Q05315 (protein)
# chain: MSLLPVPYTEAASLSTGSTVTIKGRPLVCFLNEPYLQVDFHTEMKEESDIVFHFQVCFGRRVVMNSREYGAWKQQVESKNMPFQDGQEFELSISVLPDKYQVMVNGQSSYTFDHRIKPEAVKMVQVWRDISLTKFNVSYLKR
# Columns and labels:
# Assay in all cases: glycan array binding signal (z-score within array); higher = stronger binding
# Conditions in all cases: glycan notation: IUPAC condensed, linker removed
# [1] = molecular target: GlcNAc(a1-4)Gal(b1-4)GlcNAc(b1-3)Gal(b1-4)[Fuc(a1-3)]GlcNAc(b1-3)Gal(b1-4)[Fuc(a1-3)]GlcNAc
# How it was run: (§1)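 Glycan array data came from 3228 arrays in the Consortium for Functional Glycomics database, and only arrays with an available protein sequence were kept. Glycan names were put into IUPAC-condensed notation, and columns mapping to the same glycan were averaged. The binding signal is a within-array Z-score, averaged across arrays of one protein sequence run at different concentrations or buffers and across linkers. A negative Z-score can be read as non-binding.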
# [2] = molecular target: GlcNAc(a1-6)Gal(b1-4)GlcNAc
# How it was run: as §1
# [3] = molecular target: GlcNAc(b1-2)Gal(b1-3)GalNAc
# How it was run: as §1
# [4] = molecular target: GlcNAc(b1-2)Man(a1-3)[GlcNAc(b1-2)Man(a1-6)]Man(b1-4)GlcNAc(b1-4)GlcNAc
# How it was run: as §1
# [5] = molecular target: GlcNAc(b1-2)Man(a1-3)[GlcNAc(b1-2)Man(a1-6)]Man(b1-4)GlcNAc(b1-4)[Fuc(a1-6)]GlcNAc
# How it was run: as §1
# [6] = molecular target: GlcNAc(b1-2)Man(a1-3)[GlcNAc(b1-4)][GlcNAc(b1-2)Man(a1-6)]Man(b1-4)GlcNAc(b1-4)GlcNAc
# How it was run: as §1
# [7] = molecular target: GlcNAc(b1-2)Man(a1-3)[GlcNAc(b1-4)][GlcNAc(b1-2)Man(a1-6)]Man(b1-4)GlcNAc(b1-4)[Fuc(a1-6)]GlcNAc
# How it was run: as §1
# [8] = molecular target: GlcNAc(b1-2)[GlcNAc(b1-4)]Man(a1-3)[GlcNAc(b1-2)Man(a1-6)]Man(b1-4)GlcNAc(b1-4)GlcNAc
# How it was run: as §1
# [9] = molecular target: GlcNAc(b1-2)[GlcNAc(b1-4)]Man(a1-3)[GlcNAc(b1-4)][GlcNAc(b1-2)Man(a1-6)]Man(b1-4)GlcNAc(b1-4)GlcNAc
# How it was run: as §1
# [10] = molecular target: GlcNAc(b1-2)[GlcNAc(b1-4)]Man(a1-3)[GlcNAc(b1-4)][GlcNAc(b1-2)[GlcNAc(b1-6)]Man(a1-6)]Man(b1-4)GlcNAc(b1-4)GlcNAc
# How it was run: as §1
# [11] = molecular target: GlcNAc(b1-2)[GlcNAc(b1-4)]Man(a1-3)[GlcNAc(b1-4)][GlcNAc(b1-2)[GlcNAc(b1-6)]Man(a1-6)]Man(b1-4)GlcNAc(b1-4)[Fuc(a1-6)]GlcNAc
# How it was run: as §1
# [12] = molecular target: GlcNAc(b1-2)[GlcNAc(b1-6)]Man(a1-6)[GlcNAc(b1-2)Man(a1-3)]Man(b1-4)GlcNAc(b1-4)GlcNAc
# How it was run: as §1
# [13] = molecular target: GlcNAc(b1-2)[GlcNAc(b1-6)]Man(a1-6)[GlcNAc(b1-2)Man(a1-3)]Man(b1-4)GlcNAc(b1-4)[Fuc(a1-6)]GlcNAc
# How it was run: as §1
# [14] = molecular target: GlcNAc(b1-2)[GlcNAc(b1-6)]Man(a1-6)[GlcNAc(b1-2)Man(a1-3)][GlcNAc(b1-4)]Man(b1-4)GlcNAc(b1-4)GlcNAc
# How it was run: as §1
# [15] = molecular target: GlcNAc(b1-2)[GlcNAc(b1-6)]Man(a1-6)[GlcNAc(b1-4)][GlcNAc(b1-2)Man(a1-3)]Man(b1-4)GlcNAc(b1-4)GlcNAc
# How it was run: as §1
# [16] = molecular target: GlcNAc(b1-3)Fuc
# How it was run: as §1
# [17] = molecular target: GlcNAc(b1-3)Gal
# How it was run: as §1
# [18] = molecular target: GlcNAc(b1-3)Gal(b1-3)GalNAc
# How it was run: as §1
# [19] = molecular target: GlcNAc(b1-3)Gal(b1-4)Glc
# How it was run: as §1
# [20] = molecular target: GlcNAc(b1-3)Gal(b1-4)GlcNAc
# How it was run: as §1
# [21] = molecular target: GlcNAc(b1-3)Gal(b1-4)GlcNAc(b1-2)Man(a1-3)[GlcNAc(b1-3)Gal(b1-4)GlcNAc(b1-2)Man(a1-6)]Man(b1-4)GlcNAc(b1-4)GlcNAc
# How it was run: as §1
# [22] = molecular target: GlcNAc(b1-3)Gal(b1-4)GlcNAc(b1-2)Man(a1-3)[GlcNAc(b1-3)Gal(b1-4)GlcNAc(b1-2)Man(a1-6)]Man(b1-4)GlcNAc(b1-4)[Fuc(a1-6)]GlcNAc
# How it was run: as §1
binder,measurement,setting,value
B1,glycan array binding signal (z-score),[1],3.48
same,glycan array binding signal (z-score),[2],0.467
same,glycan array binding signal (z-score),[3],-0.514
same,glycan array binding signal (z-score),[4],0.373
same,glycan array binding signal (z-score),[5],1.22
same,glycan array binding signal (z-score),[6],-0.451
same,glycan array binding signal (z-score),[7],-0.581
same,glycan array binding signal (z-score),[8],0.408
same,glycan array binding signal (z-score),[9],0.078
same,glycan array binding signal (z-score),[10],-0.448
same,glycan array binding signal (z-score),[11],-0.92
same,glycan array binding signal (z-score),[12],-0.17
same,glycan array binding signal (z-score),[13],0.356
same,glycan array binding signal (z-score),[14],-0.253
same,glycan array binding signal (z-score),[15],-0.849
same,glycan array binding signal (z-score),[16],-0.781
same,glycan array binding signal (z-score),[17],0.36
same,glycan array binding signal (z-score),[18],0.22
same,glycan array binding signal (z-score),[19],-0.313
same,glycan array binding signal (z-score),[20],-0.481
same,glycan array binding signal (z-score),[21],-0.263
same,glycan array binding signal (z-score),[22],-0.014

# 2 successive records out of the list so far, for reference:
binder,measurement,setting,value
B1,glycan array binding signal (z-score),[18],0.22
same,glycan array binding signal (z-score),[19],-0.313
